In the supplement of paper PMC10849652:
The list shows a part of the results.

Chains of the proteins cited; added tags and fusions are not shown. Lines headed by an entry give the natural chain unless they say otherwise; changes in a name come on top.
UniProt Q14157: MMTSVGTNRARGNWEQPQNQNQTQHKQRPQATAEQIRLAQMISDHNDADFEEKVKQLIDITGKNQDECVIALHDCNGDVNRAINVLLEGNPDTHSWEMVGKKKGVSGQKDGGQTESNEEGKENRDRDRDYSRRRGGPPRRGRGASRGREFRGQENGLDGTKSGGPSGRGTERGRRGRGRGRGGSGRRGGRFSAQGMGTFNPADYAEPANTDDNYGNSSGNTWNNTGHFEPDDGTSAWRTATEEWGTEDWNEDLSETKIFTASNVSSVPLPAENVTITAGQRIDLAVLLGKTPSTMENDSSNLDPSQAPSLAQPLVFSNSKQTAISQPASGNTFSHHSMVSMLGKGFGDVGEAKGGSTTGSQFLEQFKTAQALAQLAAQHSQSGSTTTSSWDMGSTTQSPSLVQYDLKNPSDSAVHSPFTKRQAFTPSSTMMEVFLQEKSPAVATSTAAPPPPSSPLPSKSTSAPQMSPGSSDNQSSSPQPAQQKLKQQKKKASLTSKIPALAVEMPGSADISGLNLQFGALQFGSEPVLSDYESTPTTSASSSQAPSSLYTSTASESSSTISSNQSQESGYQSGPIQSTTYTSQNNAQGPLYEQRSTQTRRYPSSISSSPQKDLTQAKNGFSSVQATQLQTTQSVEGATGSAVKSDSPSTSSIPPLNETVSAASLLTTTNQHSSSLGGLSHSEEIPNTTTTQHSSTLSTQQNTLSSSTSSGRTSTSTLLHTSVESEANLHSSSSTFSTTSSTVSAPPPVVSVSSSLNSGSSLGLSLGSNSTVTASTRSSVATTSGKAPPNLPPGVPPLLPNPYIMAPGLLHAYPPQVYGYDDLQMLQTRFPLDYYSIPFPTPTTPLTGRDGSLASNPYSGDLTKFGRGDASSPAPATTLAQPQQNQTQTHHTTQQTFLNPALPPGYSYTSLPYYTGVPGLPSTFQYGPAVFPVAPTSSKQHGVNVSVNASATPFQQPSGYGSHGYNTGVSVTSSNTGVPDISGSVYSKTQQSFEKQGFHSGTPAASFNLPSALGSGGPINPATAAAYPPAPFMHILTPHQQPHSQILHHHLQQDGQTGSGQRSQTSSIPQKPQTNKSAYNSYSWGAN
UniProt P26368, whole entry, looked up: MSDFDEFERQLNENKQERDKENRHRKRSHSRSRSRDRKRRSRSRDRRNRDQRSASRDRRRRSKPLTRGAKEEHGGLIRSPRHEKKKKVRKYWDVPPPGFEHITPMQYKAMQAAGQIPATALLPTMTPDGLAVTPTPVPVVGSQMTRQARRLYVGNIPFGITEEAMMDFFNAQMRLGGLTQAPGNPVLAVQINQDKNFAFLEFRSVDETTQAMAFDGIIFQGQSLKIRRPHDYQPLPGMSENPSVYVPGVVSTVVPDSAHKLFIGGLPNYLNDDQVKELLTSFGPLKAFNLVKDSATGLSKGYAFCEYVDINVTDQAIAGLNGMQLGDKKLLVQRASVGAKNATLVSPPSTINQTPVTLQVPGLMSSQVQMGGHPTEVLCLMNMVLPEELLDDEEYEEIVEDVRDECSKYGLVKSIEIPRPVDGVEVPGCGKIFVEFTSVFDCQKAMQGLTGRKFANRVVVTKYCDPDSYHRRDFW
UniProt P61077: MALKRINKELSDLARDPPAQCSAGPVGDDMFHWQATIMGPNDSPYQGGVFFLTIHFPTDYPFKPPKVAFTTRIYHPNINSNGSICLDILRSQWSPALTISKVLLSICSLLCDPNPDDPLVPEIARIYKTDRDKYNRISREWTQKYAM
UniProt O43396: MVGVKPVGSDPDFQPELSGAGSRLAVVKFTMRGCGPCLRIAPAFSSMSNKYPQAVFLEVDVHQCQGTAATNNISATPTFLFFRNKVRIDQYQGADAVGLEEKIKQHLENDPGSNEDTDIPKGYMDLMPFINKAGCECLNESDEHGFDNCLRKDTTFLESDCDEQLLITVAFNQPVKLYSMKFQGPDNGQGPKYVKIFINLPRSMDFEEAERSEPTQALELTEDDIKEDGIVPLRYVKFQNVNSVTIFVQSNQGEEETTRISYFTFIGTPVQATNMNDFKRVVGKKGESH
UniProt Q9NY65, whole entry, looked up: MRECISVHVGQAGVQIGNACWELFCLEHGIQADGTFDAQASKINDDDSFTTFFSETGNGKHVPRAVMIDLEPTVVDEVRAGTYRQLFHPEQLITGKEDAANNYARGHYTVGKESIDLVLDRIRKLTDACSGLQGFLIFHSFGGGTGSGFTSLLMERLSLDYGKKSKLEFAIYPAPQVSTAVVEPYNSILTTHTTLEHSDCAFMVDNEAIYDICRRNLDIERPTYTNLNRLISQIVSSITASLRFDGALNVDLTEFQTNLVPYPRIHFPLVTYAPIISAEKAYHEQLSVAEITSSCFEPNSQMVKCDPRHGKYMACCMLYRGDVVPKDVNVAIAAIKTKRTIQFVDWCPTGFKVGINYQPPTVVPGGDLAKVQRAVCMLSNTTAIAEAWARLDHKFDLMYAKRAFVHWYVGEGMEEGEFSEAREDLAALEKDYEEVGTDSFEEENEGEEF
UniProt Q9UJT0: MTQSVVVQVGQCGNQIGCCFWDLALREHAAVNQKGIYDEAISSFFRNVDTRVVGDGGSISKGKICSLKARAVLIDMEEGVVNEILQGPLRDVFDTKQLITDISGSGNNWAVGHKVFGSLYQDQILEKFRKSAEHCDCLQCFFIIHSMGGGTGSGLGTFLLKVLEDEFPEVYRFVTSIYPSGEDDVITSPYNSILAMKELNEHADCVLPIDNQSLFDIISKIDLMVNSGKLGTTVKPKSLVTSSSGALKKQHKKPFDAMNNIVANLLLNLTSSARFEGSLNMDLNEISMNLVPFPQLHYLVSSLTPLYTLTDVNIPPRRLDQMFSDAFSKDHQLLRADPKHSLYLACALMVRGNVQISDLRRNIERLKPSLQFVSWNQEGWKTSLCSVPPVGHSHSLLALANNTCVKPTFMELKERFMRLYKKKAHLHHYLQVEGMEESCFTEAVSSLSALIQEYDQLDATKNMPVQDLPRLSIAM
UniProt Q01081: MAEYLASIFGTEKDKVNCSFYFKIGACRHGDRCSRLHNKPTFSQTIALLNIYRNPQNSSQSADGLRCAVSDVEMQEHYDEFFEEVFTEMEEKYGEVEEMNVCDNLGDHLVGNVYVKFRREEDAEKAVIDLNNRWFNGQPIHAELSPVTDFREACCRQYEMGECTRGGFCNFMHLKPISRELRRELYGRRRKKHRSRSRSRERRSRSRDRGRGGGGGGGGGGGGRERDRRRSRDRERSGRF
UniProt Q6PID6, whole entry, looked up: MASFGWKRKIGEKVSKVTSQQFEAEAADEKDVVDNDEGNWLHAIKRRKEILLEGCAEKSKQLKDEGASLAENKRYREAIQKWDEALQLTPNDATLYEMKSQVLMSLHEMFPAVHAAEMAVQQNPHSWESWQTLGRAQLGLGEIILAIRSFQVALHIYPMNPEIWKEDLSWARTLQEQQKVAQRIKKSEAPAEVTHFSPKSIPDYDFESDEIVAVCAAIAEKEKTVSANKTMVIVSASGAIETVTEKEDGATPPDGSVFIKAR

Legend:
Test in all cases: log2 fold change, soluble protein after heating vs DMSO (PISA); higher = thermal stabilisation; K562 cells, 10 uM, 30 min; active = over 0.2 and 3.5 SD of the protein, either way, in both replicates (recomputed)
[1] = compound: CC1=C(C=C(C=C1)NC(=O)C2=CC(=CC=C2)C(C)(C)C#N)NC3=CC4=C(C=C3)N=CN(C4=O)C
Summary of the method: (§1)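 Soluble protein was quantified by TMTpro 16plex LC-MS/MS after channel sums were equalised. It was obtained as the supernatant after 21,000xg for 90 min from pooled aliquots of K562 cells (2×10^6 cells/mL, 10 μM compound, 30 min) heated for 3 min across 48°C-58°C and extracted in PBS with 0.5% NP-40 at 4°C. Thermal stability values are relative to control samples and come from duplicates. They are given as log2 fold changes.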

[2] = compound: CC1=C(C=C(C=C1)NC(=O)C2=CC(=CC=C2)N(C)C)NC(=O)C3=CC=C(C=C3)O
Summary of the method: as §1

[3] = compound: CC1=CC=C(C=C1)SC2=C3C=C(SC3=CN=C2)C(=O)N
Summary of the method: as §1

[4] = compound: CC1=NC(=CC=C1)C2=C(N=C(N2)C(C)(C)C)C3=CC4=NC=CN=C4C=C3
Summary of the method: as §1

[5] = compound: CCCCN(Cc1ccc(C(=O)NO)cc1)C(=O)Nc1ccccc1 [Nexturastat A]
Summary of the method: as §1

[6] = compound: CCCS(=O)(=O)Nc1ccc(F)c(C(=O)c2c[nH]c3ncc(-c4ccc(Cl)cc4)cc23)c1F [vemurafenib]
Summary of the method: as §1

[7] = compound: CCCS(=O)(=O)Nc1ccc(F)c(C(=O)c2c[nH]c3ncc(Cl)cc23)c1F
Summary of the method: as §1

[8] = compound: CCCc1cc(C)[nH]c(=O)c1CNC(=O)c1cc(-c2ccnc(N3CCN(C)CC3)c2)cc2c1cnn2C(C)C
Summary of the method: as §1

[9] = compound: CCN(CC)Cc1ccc2cc(COC(=O)Nc3ccc(C(=O)NO)cc3)ccc2c1 [givinostat]
Summary of the method: as §1

[10] = compound: CCN(CCCOc1ccc2c(Nc3cc(CC(=O)Nc4cccc(F)c4)[nH]n3)ncnc2c1)CCOP(=O)(O)O [barasertib]
Summary of the method: as §1

[11] = compound: CC[C@@H]1C(=O)N(C)c2cnc(Nc3ccc(C(=O)NC4CCN(C)CC4)cc3OC)nc2N1C1CCCC1
Summary of the method: as §1

[12] = compound: CC[C@@H]1C(=O)N(C)c2cnc(Nc3ccc(C(=O)N[C@H]4CC[C@H](N5CCN(CC6CC6)CC5)CC4)cc3OC)nc2N1C(C)C [volasertib]
Summary of the method: as §1

[13] = compound: CC[C@H](C)N1C=C(C2=C(C=C(C=C21)C3=CN=C(C=C3)N4CCNCC4)C(=O)NCC5=C(C=C(NC5=O)C)C)C
Summary of the method: as §1

[14] = compound: CC[C@H](C)[C@@H](C(=O)N[C@@H]([C@@H](C)O)C(=O)N[C@@H](CC(C)C)C(=O)[C@]1(CO1)C)NC(=O)[C@H]([C@@H](C)CC)N(C)C(=O)C [epoxomicin]
Summary of the method: as §1

[15] = compound: CCn1cc(-c2ccnc3[nH]c(-c4cccc(CN(C)C)c4)cc23)c(-c2ccc(NC(=O)N(C)C)cc2)n1
Summary of the method: as §1

[16] = compound: CN(C)CC(=O)Nc1ccc2[nH]c(=O)c3ccccc3c2c1
Summary of the method: as §1

[17] = compound: CN1C2=C(C3=C1C(=O)N(N=C3)CC4=CC(=CC=C4)N)SC(=C2)S(=O)C
Summary of the method: as §1

[18] = compound: CN1CCC(CNc2ccc3ncc(-c4cccc(OC(F)(F)F)c4)n3n2)CC1
Summary of the method: as §1

[19] = compound: CCn1c(C(=O)N(C2CC2)C2CC2)cc2c3c(ncn3C)c(Nc3cc(C)n(C)n3)nc21
Summary of the method: as §1

[20] = compound: CN(CCOC1=CC=C(C=C1)C[C@H]2C(=O)NC(=O)S2)C3=CC=CC=N3 (racemic) [rosiglitazone]
Summary of the method: as §1

Measured: log2 fold change

UBAP2L isoform 5 (UniProt Q14157)
inactive: [1] -0.014 | [2] 0.036 | [3] 0.017 | [4] 0.013 | [5] 0.017 | [6] -0.008 | [7] 0.006 | [8] -0.03 | [9] 0.011 | [10] 0.011 | [11] 0.005 | [12] -0.023 | [13] -0.02 | [14] -0.018 | [15] 0.004 | [16] -0.035 | [17] -0.039 | [18] 0.009

U2AF2 (UniProt P26368)
active: [12] -0.231 | [18] -0.307
inactive: [1] -0.076 | [2] 0.005 | [3] -0.066 | [4] 0.047 | [5] -0.048 | [6] 0.031 | [7] 0.001 | [8] -0.028 | [9] 0.002 | [10] -0.015 | [11] -0.057 | [13] 0.039 | [14] -0.024 | [15] 0 | [16] 0.002 | [17] 0

UBE2D3 isoform 3 (UniProt P61077)
inactive: [1] -0.016 | [2] -0.021 | [3] 0.007 | [4] -0.047 | [5] 0.046 | [6] 0.027 | [7] 0.045 | [8] -0.007 | [9] -0.007 | [10] -0.002 | [11] -0.034 | [12] -0.049 | [13] 0.007 | [14] 0.012 | [19] 0.028 | [15] 0 | [16] 0.025 | [20] 0.019 | [17] -0.057 | [18] -0.087

TXNL1 (UniProt O43396)
active: [14] 0.295
inactive: [1] 0.02 | [2] -0.105 | [3] 0.007 | [4] 0.098 | [5] 0.117 | [6] 0.037 | [7] 0.079 | [8] 0.015 | [9] 0.114 | [10] 0.045 | [11] -0.104 | [12] -0.163 | [13] 0.044 | [15] -0.031 | [16] 0.027 | [17] -0.018 | [18] 0.011

TUBA8 (UniProt Q9NY65)
inactive: [1] 0.011 | [2] 0.005 | [3] -0.087 | [4] -0.116 | [5] 0.278 | [6] -0.083 | [7] -0.066 | [8] 0.126 | [9] 0.12 | [10] -0.123 | [11] 0.532 | [12] 0.145 | [13] -0.08 | [14] -0.436 | [19] -0.146 | [15] 0.368 | [16] -0.164 | [20] -0.152 | [18] 0.389

TUBE1 (UniProt Q9UJT0)
inactive: [1] 0.007 | [2] 0.032 | [3] 0.004 | [4] -0.031 | [5] -0.139 | [6] 0.016 | [7] -0.011 | [8] -0.023 | [9] -0.009 | [10] -0.03 | [11] 0.091 | [12] 0.099 | [13] -0.008 | [14] 0.104 | [19] -0.009 | [15] 0.062 | [16] 0.028 | [20] -0.067 | [17] -0.015 | [18] -0.039

UBAP2L isoform 1 (UniProt Q14157)
inactive: [1] -0.057 | [2] 0.035 | [3] -0.016 | [4] 0.025 | [5] 0.012 | [6] -0.083 | [8] -0.045 | [10] -0.011 | [11] -0.026 | [12] -0.417 | [13] 0.046 | [14] -0.005 | [15] 0.026 | [16] -0.004 | [17] 0 | [18] -0.023
active: [7] 0.246 | [9] -0.261

U2AF1 isoform 2 (UniProt Q01081)
active: [12] -0.57
inactive: [1] -0.011 | [2] -0.078 | [3] -0.01 | [4] 0.091 | [5] 0.011 | [6] 0.074 | [7] 0.071 | [8] -0.009 | [9] 0.022 | [10] 0.009 | [11] -0.217 | [13] 0.051 | [14] -0.02 | [15] -0.015 | [16] 0.071 | [17] -0.021 | [18] -0.036

TTC33 (UniProt Q6PID6)
active: [15] -0.449
inactive: [1] -0.046 | [2] -0.025 | [3] -0.059 | [4] -0.189 | [5] 0.026 | [6] -0.07 | [7] -0.002 | [8] -0.471 | [9] -0.062 | [10] 0.079 | [11] 0.038 | [12] -0.027 | [14] 0.049 | [16] -0.075 | [17] -0.048 | [18] 0.138
